These results are taken from US20080274118A1 (Novartis, published 2008).

Protein sequences, listed by entry. Tags and fused reporters are not part of them. Lines headed by an entry give the natural chain unless they say otherwise; changes in a name come on top.
UniProt P25942: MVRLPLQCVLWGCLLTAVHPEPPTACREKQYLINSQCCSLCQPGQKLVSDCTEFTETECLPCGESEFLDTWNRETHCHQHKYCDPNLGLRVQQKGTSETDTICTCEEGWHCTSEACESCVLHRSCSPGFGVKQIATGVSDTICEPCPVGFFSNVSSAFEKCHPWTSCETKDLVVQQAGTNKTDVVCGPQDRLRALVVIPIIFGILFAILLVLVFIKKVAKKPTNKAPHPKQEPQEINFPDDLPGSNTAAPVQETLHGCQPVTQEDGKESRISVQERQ

The assay addresses human CD40, soluble or recombinant (ELISA, Biacore) (human) (UniProt P25942). The experiment in a line: ELISA-type assays. On the technique in general: An ELISA detects its analyte on a solid surface through an enzyme-linked reagent.

No constants are given. Whether binding was seen depends on the method and setting. Some binding calls cover weakened binding; strength is not graded here.

B1: CHIR-5.9 fully human anti-CD40 monoclonal antibody (antibody, V domains shown)
VH: EVQLVQSGAEVKKPGESLKISCKGSGYSFTSYWIGWVRQMPGKGLEWMGIIYPGDSDTRYSPSFQGQVTISADKSISTAYLQWSSLKASDTAMYYCARGTAAGRDYYYYYGMDVWGQGTTVTVSS
VL: AIVMTQPPLSSPVTLGQPASISCRSSQSLVHSDGNTYLNWLQQRPGQPPRLLIYKFFRRLSGVPDRFSGSGAGTDFTLKISRVEAEDVGVYYCMQVTQFPHTFGQGTRLEIKR
notes: also called mAb CHIR-5.9; 131.2F8.5.9
In the case of B1, the binding result is given as “binds”.

B2: CHIR-12.12 fully human anti-CD40 monoclonal antibody (antibody, V domains shown)
VH: QVQLVESGGGVVQPGRSLRLSCAASGFTFSSYGMHWVRQAPGKGLEWVAVISYEESNRYHADSVKGRFTISRDNSKITLYLQMNSLRTEDTAVYYCARDGGIAAPGPDYWGQGTLVTVSS
VL: DIVMTQSPLSLTVTPGEPASISCRSSQSLLYSNGYNYLDWYLQKPGQSPQVLISLGSNRASGVPDRFSGSGSGTDFTLKISRVEAEDVGVYYCMQARQTPFTFGPGTKVDIRR
notes: also called 153.8E2.D10.D6.12.12
On to B2, for which the binding entry was “binds”.
